Measured values as given in PMC11651612.
Results are given in words; binding and its absence hold for the method and conditions named. Binding seen in cells or lysates may run through a third protein. Here binding means that the protein was enriched with, or labelled near, the bait; the list need not be complete.

B1: CUE domain-containing protein (protein, UniProt J9VZQ5 1-943)
chain: MENTIKAPSPRKHSALLTTADDFDTPSQAPTPTPPATLTAHPHLAHYIHSLLNNVHFPPPRSALSQHPLSVSSSGGSDGSDSDDDHHGNVSNVSQSGSEAASTSGASGVTKSSQETGVTRSDYGTARKATTAEKEELVKKIVELLDNDQEEEIKGTLKPYMGELGKDDLLMDQVCLDCMHKRRDDIEGLPYAPHLTPTRARASPGIGSRPFTPTRVPSFRSRTPLSRTHSPVPPIPSHSSATVPPKPASSSGYSPAPSPLASPRMLNAKASTFNPSARVVSGMNASAPGFIPSDAWRDAPSADQPPRAGSPFGAIGAPSMTRTGSNLAIASPLFSDQQSPFHSPVGTPQRTPVKMPDLFSSPAQRAAASKSIVPEDDDDDEFSPFGKGLPKLHHHDTSLKADSKPFNPYFFGAPLGPALNANAGEYTPNIAMSDTSTSYSSSNLGTSDVLDESTTETGSGMTPLDVLCSVFTSVPRPELEDALHRSGYDFEAAMSMLVAAYTNPRSGASTPQRVSSPRPHIGMGRGGRDGYFPTASSRTLRSDISAMGGTRSPGGANGGKMCRYFLAGECRRSDCRFSHDLDRAMCRFWLRGHCAKGPNCEFLHNFPNNLDVSALQTAMSRVEFSQDEYARPDSPGNWHQPPEEFPDLATARSARAPRFDPSRNRFANAIKRAAPAPPRDFPSTQAQAAHSQDYLSDPSISPVPALPRPSMRIKLRPPTLLPTLKTGTAANEQYLASRSTSIRLGHARNACLARAADAFRRGDGAAAKRFSREGKALNQRMLNEAAEAAQGLVKERQAEAMEAVKERPTGWSDDPADRSQRGKACAGGLGVILGVASISRLPPSANASSLSSEERTEALLDLHTLHGNEAADILGQFLAELERERFRGLAYVVVGEEKHVGTQDEKRGAGKIRLGASVKSALAGWGYAWNESAGIICVDPCRT
B2: PLAT domain-containing protein (protein, UniProt J9VQK4 1-395)
chain: MEFHTSSQEINKPKQLYPCLAVIDINSSDTKSRRLSAGSFGSDKDEGNVLTRVISGGGRRKSSFGETGGGGGGRRLSFGGKKDDDKVEGKWYWRVQAGVNETHIVLLPLTQPPNPLLTTRPAPLSAAIPSRATHEASTHPNESAIAENEGGNEPGFASRMKNMFRRASSSVKERPSAPSASETTSGGPSIGGERVTDQTERGEMLPSVKGNVEGATNLNSNAELGWPGMINGEKLGAILIPLSSIGKKVGLGGGKKADASWVTVQVTSNTQSMEPIGTSRFDPGPKSGSIKFEFDKDWLGARGEAEVLHHYITTAAAAAPAPTERTAPNPSSFQLGGQHATSGPTQQAQTSDPLFSGSPFANTGRAGDPADRPLVDEAIAPDVSATSSRKVAGVY
B3: Mannose-6-phosphate isomerase, variant (protein, UniProt T2BNL9 1-142)
chain: MPPPAHKMAHFPRITSSLPSEHSEFRTVMWTGESSQLVLMTIPVGGEIGEEIHHVDQHLVFTSGTAKAIVAGEEKEIKAGDLVIVPQGTKHNFVNTGPTPLCLFTVYAPAEHAETTVNRTKEEGDKLEEDGKDEPPEWAVRK
B4: Uncharacterized protein (CNAG_03815) (protein, UniProt J9VIS6 1-380)
chain: MPSVLSPNNPVSRSYAPLADETNLSVTTSAPVKTIPYNGSVMYNGSNGSVMYGQPALSPMVAASSSLGLDDMQKAGMSMRNDSEETLSPSASRKGKERAKTPTFDSGDLGEVRRGSYKGKERVRDIEEGRIYSEEQLASENSRYPPTNEAEEEERRIQEHLTRLAARDMARRRAARESKQLPSPSTASASPRSSYSVSSAARRPFSFFSSSSKRGSLLGLDSSWIGKKSADVGELPMSRPRSHDEQYMNPYEAQPSFSPAPKASDSPITTSIRSPFADPSPPLPAAIDRSAYRRASVVSVASSGSPHTAYRSPLVSPSSPTDETGFAYGGPTWRGGQAVQQRENVARKGPDRWWHALCAWGDDLDGGHDVPEAGRTNPFE
B5: Zinc finger protein (CNAG_00292) (protein, UniProt J9VGH9 1-524)
chain: MSSDKTNLFPTLSEVADRTGKGESAGLEQEGDDRQMQEIESLCMRCHENGTTRLLLTSIPYFKEIVVSSFRCDHCGHRDTEIQSAGEIQPKGVTYTVHLLTRADLDRQIVKSNWATITIPDIQLTIPPGRGQINTVEGIIRDTVRDLNISQPVRRVMDPETGKKIDELLEKLRASIDMEEEDEDDGGVGIDDDEKPVHHEPSNASSKEEKPFVPFSVIVDDPSGNSYFQFKGSQSDPQWNMRAYNRTFDQNVTLGLVARPEDISEEQPEGVPIVAADHKLSSVEEFESKRNKNAINRDDGTVVPDEIYSFPATCSSCGHQLETLMQQVNIPYFQNIIIMSSNCYACGYRDNEVKSGGSIAPKGKRITLKVEDEEDLSRDMLKSDTAGLSIPEIDLVLQPGTLGGRFTTLEGLLNEIYTELSTKVFRAGDSTTAGIGQADSNVGEDEAKFGDFLKGLKECMSAQRQFTLILDDPVSNSYLQNLYAPDPDPNMQIEVYDRTFEQNEELGLNDMVVEGYNKEAEGTA
B6: Rho family GTPase–Rho104 (protein, UniProt J9VN71 1-224)
chain: MSSSPNNRAIRRKLVIVGDGAAGKTSLLNVFAVGHFSESYEPTVFDNYVTEIELDGKPVQLALWDTAGQEEYERLRPLSYSKAHVILIAFAVDTPDSLENVTQKWIEEVRSICGKAIPVILVACKTDLRDKAVANGTYSPERFTDHATGQRIADSIGAKGYFETSALQNRNVDAVFEAATRAAVLVRDAGHGGVGATNGSFEGGGRKDWGREKEEKKFGCCVIA
B7: PH domain-containing protein (CNAG_06928) (protein, UniProt J9VR41 1-1142)
chain: MSVDLSHPDIAAACASISNPADPAAWLLLQYASPPSTTQLPQLLLLDSGPLPVLPAWQHHLQTTHQSILFGYAEIAEKGLVLVYLTPDVGGVKRARAIVHSRAFASLFPDYSAIITISHPSELTEQLIADELALNLPSTTSLPASVPAASTQYVVPGADGLVPDPLSPRGAGMGRDLPSLPFPTSNQQSLQTTQLQTSQLPPLPPLPPSPIPPSPVSKDETGISRVSNVNGMNEAKEVEKGMNLEVGGEHEREGRQENDHGSGFENGNGNRNGNMSTNITTSTRKPVPALSLSPSPPRPPRHSQPRTPPKPQPILLPNSAHLPVAPLDLAPAPATPAQATGGTEERSRKSSTPLSLTSRLKNTFHRSSLKDKDSPTVVPSSPTPTPSSPSFPSSANNAKPDDLGSPISNPNATSTPHSPSTPSAGKFKASSLSKVFGKRKSAGTSTSTPSGSGTWAGPGEGSKLTEEREGQRINEFGRPPQTGEGLQVSSQSTGIDPPVAPASVPIASPSLAAAPTPSPKSPLPHPSEPSVQSGPTDELNSPPAGLEPGLGLATPLPPRGSSLQPHHSPSPLSSPGAPGAQERQTIGTGNAVFPLAGVPLLGPEAPLPLLPPSSPSSHSHRGLDSNLERVGSPYYTPSLMHPSPSFQPQEGKTQNQPYTYPSRLHPHTQTPSHSHPSAAATTLQSPPSRSTSLSSSTPPTTTLATTTMGPAYIPAGTQDAYANAKEGGEEIEAEEGKQRDREREREKERESVLLAYDRPEIESKLDPRQEEGTTEIMEGMEKGLFPHQGEQVSDASAPNPVSLGAPAPAPVDEYDSLSHPSALQSPSPLHPTTPIHATAPHLVEEQTEEAEKETKETPVQTKEAKAEGEDDEQNQKEGEEQRLEREREREMLEAQQLAQWQAAETARWEAEESARLEREQAVRLAAEEQARRDAEEAERFRLEEEERVRAEEEARRQKEAEEEARRRAEEERRRQREREEEENRRVEEEERRKREEERRKEEEERRKREEEEERERKRKEEAEERKRTVRDGLERGKREGGLMLKGSVTVQTCKSLTWRRRYFQLFSHEMQLFKNENDTKPIQIIPLSKSTDISETYEESQVKDSFKISSGDEGEGGEVFFLFTDSAEDKEFVLDGVRLCIG
B8: Allergen (protein, UniProt J9VN13 1-234)
chain: MSGVTQGVKEFFSKSSKPETTEVCTDTAPEVVQEHIRPQERVETAEAVDRERHVHHLQHRLQPVEDKQTLDTKHINTTEPVIAREHKEEMRPEHQEALAKQRNLAQDTRSTGAVEKSGEHVGTALNEHQHHHIHETVQPVVQRETVDPTVVHKTKAVHERVEDAPIVHEVTTLPTISADKYAKNKSSLEGEGEHCSTFEGAPQVAGQSSNVSAENAAPDATSTGGHHSSKTQAL

Target: T1, Cdc10-mCherry (C. neoformans) (UniProt J9VMT9)
T1 sequence: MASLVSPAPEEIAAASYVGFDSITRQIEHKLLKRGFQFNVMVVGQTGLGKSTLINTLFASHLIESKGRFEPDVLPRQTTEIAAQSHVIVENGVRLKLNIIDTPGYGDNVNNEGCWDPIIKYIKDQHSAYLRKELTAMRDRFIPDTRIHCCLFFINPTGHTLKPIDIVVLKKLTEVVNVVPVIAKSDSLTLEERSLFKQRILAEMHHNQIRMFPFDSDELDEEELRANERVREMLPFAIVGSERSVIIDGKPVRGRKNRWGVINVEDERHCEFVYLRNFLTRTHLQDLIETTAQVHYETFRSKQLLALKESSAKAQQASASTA
Experiment: affinity purification with mass spectrometry

| Binder | binding |
| --- | --- |
| B1 | binds |
| B2 | binds |
| B3 | binds |
| B4 | binds |
| B5 | binds |
| B6 | binds |

Target: T2, Cdc3-mCherry (C. neoformans) (UniProt J9VUF2)
T2 sequence: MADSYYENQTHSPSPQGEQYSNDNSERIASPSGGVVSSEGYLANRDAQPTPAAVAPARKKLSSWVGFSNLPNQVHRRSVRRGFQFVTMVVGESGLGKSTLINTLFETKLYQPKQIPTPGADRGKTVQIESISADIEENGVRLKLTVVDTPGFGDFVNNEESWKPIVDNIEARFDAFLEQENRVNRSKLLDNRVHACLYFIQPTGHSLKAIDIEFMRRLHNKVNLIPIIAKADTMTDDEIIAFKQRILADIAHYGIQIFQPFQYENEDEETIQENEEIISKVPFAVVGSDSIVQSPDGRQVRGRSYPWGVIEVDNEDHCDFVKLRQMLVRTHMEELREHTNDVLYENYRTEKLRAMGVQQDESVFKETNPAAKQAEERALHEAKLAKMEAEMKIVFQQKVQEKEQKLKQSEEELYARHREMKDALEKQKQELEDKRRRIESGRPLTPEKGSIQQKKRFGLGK
Experiment: affinity purification with mass spectrometry

| Binder | binding |
| --- | --- |
| B1 | binds |
| B2 | binds |
| B7 | binds |
| B8 | binds |
